We go through 1 molecule from US20240336680A1.

Assay [1] concerns the target T1, human CLDN18.2EC1 (extra-cellular domain 1) human Fc protein (human) (UniProt P56856).
T1 sequence (looked up): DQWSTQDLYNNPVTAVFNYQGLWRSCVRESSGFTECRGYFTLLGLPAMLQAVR
The assay is described as follows: ELISA, human CLDN18.2EC1-huFc coated at 1 ug/ml, HRP goat anti-mouse IgG, OD 450 nm.

For assay [2], the target named is T1, human CLDN18.2EC1 (extra-cellular domain 1) human Fc protein (human). The assay is described as follows: ELISA, plate coated with human CLDN18.2EC1-huFc at 1 µg/ml, five-fold dilutions from 20 µg/ml. On the technique in general: In an ELISA, binding on a coated surface is turned into a signal by an enzyme label.

These are yes or no findings as the source states them, for the method shown. Some results given as binding are weak or reduced against the parent protein; the word gives no strength. Sequences can lack the tags named with a protein.

B1: T158S2 (anti-CLDN18.2 mouse hybridoma antibody) (antibody, V domains shown)
VH: EVKLVESGGGLVQPGGSLKLSCATSGFTFSDYYMFWIRQTPEKRLEWVASISDGGGDTYYPDTVKGRFTISRDNAKNTLYLQMSRLKSEDTAMYYCARHRGSLDYWGQGTTLTVSS
VL: DIVLTQSPASLAVSLGQRATISCRASESVDNYGFSFLHWYQQKPGQPPKLLIYRASNLASGIPARFSGSGSRTDFTLTINPVETDDVATYYCQQSNQGPLTFGAGTKLELK
As to B1, the binding entry in assay [1] and in assay [2] was “binds” throughout.
